These are yes or no findings as the source states them, for the method shown. In cells and extracts the contact can be indirect. Some entries that bind do so weakly or less than the wild type. Where a sequence is shown, tags or fusion partners need not be part of it.
Molecular target: T1, mCherry-Id1 fusion protein (Inhibitor of differentiation/DNA binding 1) (UniProt P41134)
T1 sequence: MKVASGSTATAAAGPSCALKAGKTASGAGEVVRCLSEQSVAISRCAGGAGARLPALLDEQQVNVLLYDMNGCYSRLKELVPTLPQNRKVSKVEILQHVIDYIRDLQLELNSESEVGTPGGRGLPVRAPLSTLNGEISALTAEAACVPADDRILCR
Experiment: co-IP; lysates of HepG2 cells overexpressing mCherry-Id1 and EGFP-E2F4; IP with anti-Cherry or anti-GFP, protein A/G agarose; lysis buffer 50 mM Tris-Cl pH 7.5, 50 mM NaCl, 5 mM EDTA, 1% NP-40; 4 C; western blot

Sequences of proteins named here, by UniProt entry; tags and fusion partners are left off. A change or cut given only in a name is not applied to a line headed by its entry.
UniProt Q16254: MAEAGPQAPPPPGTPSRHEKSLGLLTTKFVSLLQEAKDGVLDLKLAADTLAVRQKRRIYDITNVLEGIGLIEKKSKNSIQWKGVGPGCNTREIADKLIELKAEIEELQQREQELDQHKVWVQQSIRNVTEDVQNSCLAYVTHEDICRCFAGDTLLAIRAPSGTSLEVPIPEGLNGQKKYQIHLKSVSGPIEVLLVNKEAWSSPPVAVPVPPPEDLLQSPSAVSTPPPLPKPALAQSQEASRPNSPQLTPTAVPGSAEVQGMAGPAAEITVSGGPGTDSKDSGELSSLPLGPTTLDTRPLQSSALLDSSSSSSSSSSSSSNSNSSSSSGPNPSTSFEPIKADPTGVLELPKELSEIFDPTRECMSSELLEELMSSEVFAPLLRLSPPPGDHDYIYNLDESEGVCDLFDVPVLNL

EGFP-E2F4 fusion protein (E2F transcription factor 4) (from UniProt Q16254 1-413)
binding: binds

Reference: publication PMC8692152
